The values that follow come from the supplement of paper PMC12578635.

Some of the results follow. No stated cut-off is given here; in the data, active = 150% or more and inactive = the rest. Many values rest on one well or one pass, so single values are uncertain.

The test deals with Staphylococcus aureus JE2-lux inside RAW 264.7 macrophages. In words: intracellular bacterial bioluminescence relative to DMSO vehicle; higher = higher intracellular bacterial metabolic activity. The following applies: 10 µM; treatment time 4 h; gentamicin 50 µg/ml.
For the compound `Cc1cc(C)cc(NC(=O)CN2C(=O)C3(SCC(=O)N3c3ccc(F)cc3)c3ccccc32)c1` (centres undefined), the intracellular bacterial bioluminescence is inactive: 118%.

As to `COc1cccc(C(=O)Nn2c(C3CCC3)nc3ccccc3c2=O)c1`, the intracellular bacterial bioluminescence is inactive: 123%.

Take `Cc1ccc(NS(=O)(=O)c2ccc(Cl)cc2)c(-c2nc3ccccc3[nH]c2=O)c1`: the intracellular bacterial bioluminescence is inactive: 73.5%.

For the compound `N#Cc1c(N)c(C(=O)c2ccc(Cl)cc2)n2ccccc12`, the intracellular bacterial bioluminescence is inactive: 85.6%.

As to `COc1ccccc1NCN1C(=O)C(=O)c2ccccc21`, the intracellular bacterial bioluminescence is inactive: 115%.

Consider `COc1ccc(C(=O)Nc2sc(Cc3ccc4c(c3)OCO4)c(C)c2C#N)cc1`, for which the intracellular bacterial bioluminescence was inactive: 41.3%.

As to `Cc1cc2cc(CNC(=O)c3ccc([N+](=O)[O-])cc3)ccc2[nH]1`, the intracellular bacterial bioluminescence was inactive: 94%.

Consider `Cc1ccc(-c2ccc(/C=C3\SC(=S)N(CC(=O)O)C3=O)o2)cc1`, for which the intracellular bacterial bioluminescence is inactive: 55.3%.

Turning to `CCN(CC)c1ccc(C2C3=C(CCCC3=O)Nc3[nH]c(=O)[nH]c(=O)c32)cc1` (centres undefined), the intracellular bacterial bioluminescence was active: 157%.

In the case of `Cc1ccc(S(=O)(=O)c2nnn3c2nc(NCc2ccc(Cl)cc2)c2ccccc23)c(C)c1`, the intracellular bacterial bioluminescence was inactive: 114%.

In the case of `COc1ccc(CN(Cc2cc3ccc(C)c(C)c3nc2Cl)C(=O)C2CC2)cc1`, the intracellular bacterial bioluminescence was inactive: 70.8%.

For the compound `O=C(COc1ccccc1)N1CCC[C@@H]1Cn1nc(-c2cccs2)ccc1=O`, the intracellular bacterial bioluminescence is inactive: 69%.

`COC(=O)c1c(NC(=O)CCc2ccc(C)o2)sc2c1CCCC2`: the intracellular bacterial bioluminescence is inactive: 92.9%.

Take `COCCCNC(=O)C1CCN(c2ncnc3onc(-c4ccc(C)cc4)c23)CC1`: the intracellular bacterial bioluminescence was inactive: 105%.

Regarding `O=C(Nc1ccc(-c2nc3cccnc3s2)cc1)c1ccc(Br)o1`, the intracellular bacterial bioluminescence was inactive: 83.2%.

Consider `O=C(O)/C=C/c1ccc2c(-c3ccccc3)onc2c1`, for which the intracellular bacterial bioluminescence is inactive: 81.6%.

Consider `Cc1cc(Cl)cc2sc(NC(=O)CN3C(=O)CCC3=O)nc12`, for which the intracellular bacterial bioluminescence is inactive: 24.1%.

On to `O=C(CSc1nc(O)c2nc[nH]c2n1)N1CCCC1`, for which the intracellular bacterial bioluminescence was inactive: 116%.

`O=C(OC(C(=O)NC1CCCCC1)c1ccc2ncccc2c1)c1cccs1` (centres undefined): the intracellular bacterial bioluminescence was inactive: 106%.

Consider `Cc1cc(C)c2nc(NCCNC(=O)c3ccco3)c(C#N)cc2c1`, for which the intracellular bacterial bioluminescence was inactive: 120%.

Regarding `COc1ccc(CCNc2nc(C(F)(F)F)nc3c(C)cc(C)cc23)cc1OC`, the intracellular bacterial bioluminescence was inactive: 83.9%.

In the case of `CCOC(=O)c1sc2nc(Cc3ccc(OC)c(OC)c3)[nH]c(=O)c2c1C`, the intracellular bacterial bioluminescence was inactive: 80.7%.

In the case of `Cc1ccc2[nH]c(=O)c(N3CCOCC3)c(-c3ccccc3)c2c1`, the intracellular bacterial bioluminescence is inactive: 77.6%.

For the compound `O=C(NCc1ccco1)c1ccc2c(c1)C(=O)c1ccccc1-2`, the intracellular bacterial bioluminescence is inactive: 121%.

In the case of `Cc1cc(NC(=O)CSC2=NS(=O)(=O)c3cc(Cl)ccc3N2)no1`, the intracellular bacterial bioluminescence was inactive: 126%.

With `CNc1nc2c(c(=O)n(C)c(=O)n2C)n1CC(O)COc1ccccc1C` (centres undefined), the intracellular bacterial bioluminescence is inactive: 116%.

On to `COc1ccccc1N1CCN(c2nccn3nc(-c4ccc(C)c(C)c4)cc23)CC1`, for which the intracellular bacterial bioluminescence was inactive: 76.7%.

With `CCOCCOC(=O)c1ccc2c(c1)N(Cc1ccncc1)C(=O)c1ccccc1S2`, the intracellular bacterial bioluminescence is inactive: 0.675%.

On to `CCOC(=O)CCc1c(C)[nH]c2c(C(=O)Nc3ccccc3C)cnn2c1=O`, for which the intracellular bacterial bioluminescence is inactive: 113%.

For `Clc1cccc(NCc2nnc3n2CCCCC3)c1`, the intracellular bacterial bioluminescence is inactive: 60.5%.

`O=C(/C=C1/Nc2ccccc2NC1=O)Nc1cccc(C(F)(F)F)c1`: the intracellular bacterial bioluminescence is inactive: 5.37%.

For the compound `CCC(SC1=Nc2ccccc2C2=NC(C)C(=O)N12)C(=O)Nc1cc(F)ccc1F` (centres undefined), the intracellular bacterial bioluminescence is inactive: 102%.

Consider `CCc1cc(Sc2nnc(NC(C)=O)s2)n2ncnc2n1`, for which the intracellular bacterial bioluminescence was inactive: 74.5%.

With `CNC(=O)c1ccsc1NC(=O)CN1C(=O)CCC1=O`, the intracellular bacterial bioluminescence is inactive: 48.9%.

Consider `COc1ccccc1NC(=O)C1=C(C)NC(=O)NC1c1ccc(Cl)cc1Cl` (centres undefined), for which the intracellular bacterial bioluminescence is inactive: 65.9%.

As to `Cc1ccc2nc(NCCCNS(=O)(=O)c3ccc4c(c3)OCCO4)c(C#N)cc2c1`, the intracellular bacterial bioluminescence was inactive: 69.5%.

Take `O=C(Nc1ccc2scnc2c1)c1cc2c(ccc3ccccc32)oc1=O`: the intracellular bacterial bioluminescence was inactive: 102%.

On to `Cc1cnc(NC(=O)CSc2ncnc3c(-c4ccc(F)cc4)nsc23)s1`, for which the intracellular bacterial bioluminescence is inactive: 91.1%.

Regarding `COc1ccc(Cc2nc3c4c(C)c(C)n(-c5ccc(C)cc5)c4ncn3n2)cc1`, the intracellular bacterial bioluminescence is inactive: 103%.

As to `Cc1cc(N2CCN(C(=O)c3ccc(=O)n(C)c3)CC2)nc(C)n1`, the intracellular bacterial bioluminescence was inactive: 118%.

Consider `O=C(CN1C(=O)c2ccccc2C1=O)Nc1nc2c(s1)CSc1ccccc1-2`, for which the intracellular bacterial bioluminescence was inactive: 20.2%.

On to `COc1ccc(C(=O)N2CCN(c3nc(C)c(C)c(=O)[nH]3)CC2)cc1`, for which the intracellular bacterial bioluminescence is inactive: 109%.

As to `COc1ccc(-c2nsc3c(SCC(C)=O)ncnc23)cc1`, the intracellular bacterial bioluminescence is inactive: 115%.

`CCOc1ccc(CC(=O)Oc2cc(C)[nH]c(=O)c2[N+](=O)[O-])cc1`: the intracellular bacterial bioluminescence is inactive: 126%.

Take `COc1ccc(Br)cc1CNC(=O)c1nccn1Cc1ccccc1C`: the intracellular bacterial bioluminescence was inactive: 15.6%.

Turning to `Cc1ccc([N+](=O)[O-])cc1N1C(=O)CC(Nc2ccc(N3CCOCC3)cc2)C1=O` (centres undefined), the intracellular bacterial bioluminescence is inactive: 118%.

For the compound `Cc1cc2c(=O)n(CC(=O)NC(c3cccs3)C(C)C)cnc2s1` (centres undefined), the intracellular bacterial bioluminescence is inactive: 89.5%.

As for `C#CCn1/c(=N/C(=O)CN2C(=O)CCC2=O)sc2c3ccccc3ccc21`, the intracellular bacterial bioluminescence is inactive: 117%.

`COc1ccc(Nc2nc(C)c3nc(C)n(-c4ccc(OC)c(Cl)c4)c3n2)cc1Cl`: the intracellular bacterial bioluminescence is inactive: 87.6%.

For `Cc1ccc(C)c(C(=O)Nc2nc3c(s2)COc2ccccc2-3)c1`, the intracellular bacterial bioluminescence was inactive: 66.3%.

Regarding `CN1C(=O)c2cccc(NC(=O)c3ccc(Br)s3)c2C1=O`, the intracellular bacterial bioluminescence was inactive: 63.3%.

In the case of `Cc1ccc(-c2nc(N)n(C(=O)C(c3ccccc3)c3ccccc3)n2)cc1C`, the intracellular bacterial bioluminescence is inactive: 98.8%.

On to `Cc1ccc(S(=O)(=O)N(C)c2cncc(C(=O)NC(C)CCc3ccccc3)c2)cc1` (centres undefined), for which the intracellular bacterial bioluminescence is inactive: 67.1%.

Turning to `C=CCn1c(NCCO)nc2sc3c(c2c1=O)CCC3`, the intracellular bacterial bioluminescence is inactive: 90.2%.

Turning to `O=C1NC(=S)N/C1=C\c1cc([N+](=O)[O-])ccc1OCc1ccccc1Cl`, the intracellular bacterial bioluminescence was inactive: 96.7%.

In the case of `O=C(NCc1ccccc1Cl)C1CCCN(c2nccnc2Oc2ccccc2)C1` (centres undefined), the intracellular bacterial bioluminescence is inactive: 69.4%.

As to `O=C(CCn1cnc2onc(-c3cc(F)cc(F)c3)c2c1=O)NCc1cccc(F)c1`, the intracellular bacterial bioluminescence is inactive: 133%.

With `COc1ccc(C(=O)C2CCN(C(=O)Nc3ccccc3F)CC2)cc1`, the intracellular bacterial bioluminescence is inactive: 70.6%.

Take `O=C(Cn1cc(S(=O)(=O)c2ccccc2)c(=O)c2cc(F)ccc21)Nc1cccc(Cl)c1`: the intracellular bacterial bioluminescence is inactive: 87.4%.
